Data as given in PubChem BioAssay AID504784 (Drosophila RNAi Screening Center, 2011).
In all, the deposit lists about 17,000 reagents; below is an unselected part of those with a known target gene and a result. 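Each column is one replicate's B-score; the combined score over replicates was not deposited, so single values may mislead.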 The numbers tell different reagents against one gene apart. Names joined by + are all predicted targets of the reagent.

- Screen: 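Genome-wide knock-down for genes giving too much or too little stored lipid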 (primary screen)
- Cells: Drosophila Kc167 embryonic cells
- Reagents: long dsRNA against Drosophila genes, about 250 ng dsRNA per well
- Timing: 4 days
- Challenge: cells fed 400 µM oleic acid bound to BSA
- Measured: 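Microscope images give a droplet-to-nucleus area ratio, taken as log and converted to a screen-wide B-score; higher values mean greater lipid storage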
- Direction: droplet/nuclear area B-score: higher = more stored lipid (overstorage)

The opening 2 records, to show the layout:
droplet/nuclear area B-score, replicate 1	droplet/nuclear area B-score, replicate 2	droplet/nuclear area B-score, replicate 3	target gene	dsRNA no.
-1.02	-0.0678	0.609	CG32454	1
-1.57	-0.7		CG17177	1

The list itself, from the first entry:
droplet/nuclear area B-score, replicate 1	droplet/nuclear area B-score, replicate 2	droplet/nuclear area B-score, replicate 3	target gene	dsRNA no.
-1.02	-0.0678	0.609	CG32454	1
-1.57	-0.7		CG17177	1
-1.09			Slbp	1
3.05	2.85		CR33319	1
-0.0432	-0.754		CG7720	1
-0.0717	0.886		CG7720	2
0.77	0.17		alphaTub84D	1
-2.22	-1.65		Vha68-1	1
-0.0509	1.38		Pop5	1
-1.27	1.51		shn	1
-0.957	1.2		shn	2
-0.0118	-0.447		CG12780	1
-1.2			CG15514	1
-0.35	-0.587		exex	1
0.675	0.242	0.897	CG4404	1
-0.498	0.379	-0.705	Aldh7A1	1
-0.0214	1.48		Rox8	1
-4.36	-3.3		SmD1	1
0.123	0.424		CG12641 (retired record)	1
1.06	2		CG12641 (retired record)	2
-1.76	3.9		crim	1
-0.107	-0.779		His1:CG33816 + His1:CG33828 + His1:CG33819 + 21 more	1
0.244	-0.874		Jhbp14	1
-0.89	0.923		Egm	1
3.73	3.28		Egm	2
-2.77	-2.03		CG14767	1
2.8	3.02		CG8960	1
-0.055	0.0153		santa-maria	1
-0.958	0.101		santa-maria	2
-0.985	0.0526		PTP-ER	1
-0.275	-1.05		PTP-ER	2
0.0152	-0.273		REPTOR	1
2.3	0.269		CG8319	1
1.17	1.93		Cpr47Ec	1
-0.0793	1.76		RanGAP	1
1.38	1.47		Opa1	1
0.0896	-0.597		CG4615	1
-1.77	-1.75	2.23	CG4615	2
0.0471	0.489		Ir51b	1
-4.91	0.943		Dscam4	1
0.79	0.0529		Dscam4	2
3.43	2.42		Dscam4	3
0.842	-2.77		Dscam4	4
0.745	-0.00793		tadr	1
-1.08	1.32		CG17097	1
-0.663	-0.4		CG13185	1
-4.65	0.632		Bre1	1
-0.113	-0.772		Fpps	1
-0.171	-1.06		CG32572	1
0.836	0.00467		CG32572	2
0.508	-0.585		mbc	1
-0.00686	-2.95		CG5382	1
0.0445	-1.1		CG12995	1
0.0196	-1.46		CycJ	1
-0.482	-0.179		Csk	1
-3.83	-5.96		Csk	2
-0.0816	-0.268		Csk	3
1.38	-1.67	-1.05	CG12825	1
-0.0102	0.521		RanBP3	1
1.22	-0.0199		RanBP3	2
1.19	-0.226	0.385	snf	1
-0.21	0.334		CG7634	1
-0.0588	-1.24		Prosalpha4T1	1
1.32	-0.562		Tep3	1
1.45	-1.16	0.732	Nadsyn	1
-0.673	-1.82		f	1
0.0675	2.57		f	2
-1.1	0.514		f	3
0.689	-0.575		Tsp42Ef	1
0.106	-0.38		FIG4	1
-0.253	-0.592		Det	1
-0.0427	-1.36		Tsp2A	1
-0.478	-1.69		Zasp66	1
-0.953	0.852		Zasp66	2
-0.0537	0.783		Zasp66	3
-0.655	-0.201		CG14893	1
-3.15			ttm50	1
0.00118	-0.29		DnaJ-H	1
-0.84	-0.601		CG9550	1
-1.08	0.556		CG14207	1
0.0141	0.000231		CG14207	2
-0.0724	-0.145		CR31292	1
-0.46	1.18		Tsf1	1
2.36	0.264		ND-B14.7	1
1.64	0.424		Spg7	1
0.218	0.431		CG31191	1
1.54	0.541		CG31191	2
-2.4	0.0495		Sc2	1
0.1	-1.43	0.336	CG3184	1
0.706	1.17		CG10019	1
0.0937	-0.624		Dera	1
0.602	1.1		Dera	2
-1.24	-0.141	4.77	Cpr11A	1
1.44	0.382		tum	1
1.38	2.47		CG31111	1
0.355	2.32		Eglp1	1
0.637			Tbca	1
0.406	1.34		FeCH	1
0.121	0.935	0.274	Ir94e	1
0.674	-1.94	0.136	dhd	1
-0.0108	-0.675		CG18268 + CG3014	1
-0.176	2.62	1.1	CG6479	1
3.08	-0.0833		CG30356	1
-0.674	-0.822		CG10621	1
-0.196	0.172		Mtl	1
